Measurements reported in PubChem BioAssay AID1259331 (Drosophila RNAi Screening Center, 2017).
The whole screen tested about 3,100 reagents; this is a part drawn at random. 126 of all reagents (4.1%) were called active. 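Calls are per reagent; zinc was so toxic that few knock-downs lowered ATP further, so most hits raise ATP.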 Raw values vary from plate to plate and are shown uncorrected. Names joined by + are all predicted targets of the reagent. The record does not give: the amount of reagent.

Screen: 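Genes whose knock-down changes cell survival under toxic zinc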 (primary screen)
Cell system: Drosophila S2R+ cells
Reagents: long dsRNA against Drosophila genes
Duration: 5 days (4 days knock-down, then 1 day zinc)
Conditions: zinc chloride at 15 mM final level for 1 day
Measured: 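Total cellular ATP measured by luciferase luminescence as a viability proxy, turned into Z scores from three plate copies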
Scale: mean Z score: higher = more ATP than other wells, better survival under zinc; ATP luminescence: higher = more ATP, more viable cells
Active means: 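a reagent is called a hit when its Z score is above 1.5 or below -1.5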
Meaning of the calls: active = hit, ATP up or down; inactive = not a hit

| target | dsRNA | mean Z score | ATP luminescence, replicate 1 | ATP luminescence, replicate 2 | activity call |
| --- | --- | --- | --- | --- | --- |
| CG13801 (GeneID 38299) | DRSC08335 | -0.391 | 66493 | 72191 | inactive |
| 5-HT2A (GeneID 40575) | DRSC11990 | -0.603 | 27850 | 27679 | inactive |
| 5-HT2A (GeneID 40575) | DRSC39711 | -0.454 | 57545 | 50395 | inactive |
| ACXB (GeneID 53427) | DRSC26343 | 0.571 | 66926 | 67475 | inactive |
| ACXB (GeneID 53427) | DRSC39703 | 0.691 | 67429 | 71690 | inactive |
| pHCl-2 (GeneID 43703) | DRSC14306 | 0.266 | 73889 | 66960 | inactive |
| nAChRalpha1 (GeneID 42918) | DRSC13672 | -0.609 | 66789 | 49674 | inactive |
| nAChRalpha1 (GeneID 42918) | DRSC17008 | -0.429 | 36370 | 51767 | inactive |
| CG3036 (GeneID 33695) | DRSC00562 | 0.487 | 63029 | 63150 | inactive |
| CG3036 (GeneID 33695) | DRSC24856 | -1.09 | 44411 | 44891 | inactive |
| rut (GeneID 32406) | DRSC22976 | -0.0189 | 50772 | 43059 | inactive |
| bib + lncRNA:CR13130 | DRSC24888 | 0.214 | 60683 | 58574 | inactive |
| GlyT (GeneID 37772) | DRSC04512 | 1.06 | 63839 | 49898 | inactive |
| GlyT (GeneID 37772) | DRSC26130 | -0.133 | 55693 | 54167 | inactive |
| Ndae1 (GeneID 34005) | DRSC02770 | 1.67 | 76697 | 83168 | active |
| Ndae1 (GeneID 34005) | DRSC39781 | 1.53 | 73958 | 82036 | active |
| Gp210 (GeneID 35512) | DRSC04861 | 0.492 | 1.43e5 | 65279 | inactive |
| Gp210 (GeneID 35512) | DRSC39541 | 0 | 48234 | 55556 | inactive |
| PGAP1 (GeneID 31487) | DRSC18286 | -0.604 | 40496 | 37399 | inactive |
| PGAP1 (GeneID 31487) | DRSC28989 | 0.0459 | 65800 | 58335 | inactive |
| VhaM9.7-b (GeneID 40389) | DRSC11841 | -0.114 | 74266 | 58608 | inactive |
| ACXD (GeneID 38284) | DRSC23762 | -0.569 | 48766 | 53841 | inactive |
| ppk13 (GeneID 3346226) | DRSC02382 | -0.577 | 41788 | 31245 | inactive |
| Elk (GeneID 37047) | DRSC07608 | -0.412 | 25413 | 31896 | inactive |
| Elk (GeneID 37047) | DRSC39479 | -0.0571 | 50241 | 52367 | inactive |
| Scgbeta (GeneID 41525) | DRSC15854 | -0.435 | 35513 | 52847 | inactive |
| PIG-Wb (GeneID 38220) | DRSC08526 | -0.155 | 67509 | 68538 | inactive |
| VGlut (GeneID 33427) | DRSC21821 | -0.126 | 48200 | 47180 | inactive |
| VGlut (GeneID 33427) | DRSC39749 | -0.403 | 60872 | 51475 | inactive |

4 entries from above, arranged by “ATP luminescence, replicate 2”, low to high.
| target | dsRNA | mean Z score | ATP luminescence, replicate 1 | ATP luminescence, replicate 2 | activity call |
| --- | --- | --- | --- | --- | --- |
| GlyT (GeneID 37772) | DRSC04512 | 1.06 | 63839 | 49898 | inactive |
| GlyT (GeneID 37772) | DRSC26130 | -0.133 | 55693 | 54167 | inactive |
| Ndae1 (GeneID 34005) | DRSC39781 | 1.53 | 73958 | 82036 | active |
| Ndae1 (GeneID 34005) | DRSC02770 | 1.67 | 76697 | 83168 | active |
